Test results reported in PMC7819943, “Rice protein-binding microarrays: a tool to detect cis-acting elements near promoter regions in rice”.
This is one part of the list.

Protein sequences, listed by entry. Tags and fused reporters are not part of them.
UniProt Q0JBA9, entry or part of it: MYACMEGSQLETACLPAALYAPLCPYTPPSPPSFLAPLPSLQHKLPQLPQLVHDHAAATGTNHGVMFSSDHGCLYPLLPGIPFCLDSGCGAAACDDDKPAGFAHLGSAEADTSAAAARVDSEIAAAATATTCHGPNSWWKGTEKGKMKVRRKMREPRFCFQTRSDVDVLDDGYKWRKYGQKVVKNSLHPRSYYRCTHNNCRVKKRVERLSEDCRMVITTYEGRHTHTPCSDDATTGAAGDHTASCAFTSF

biological target: OsWRKY34 (Oryza sativa, UniProt Q0JBA9 1-250); experiment: protein-binding microarray (RPBM); PBS, 2% BSA, 51.3 ng/ul salmon testes DNA, 50 uM zinc acetate, 200 nM TF, 25 C, 1 h; high values mean tight binding; conditions: protein: recombinant; tags: N-terminal polyhistidine and DsRed monomer fusion (pET32a); label: CyDye5-dUTP incorporated in the synthesized complementary strand; 3' TTTTT single-stranded linker to array surface; dsDNA, one strand shown
Summary of the method: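 The binding signal is fluorescence intensity per feature, in arbitrary units, read on an Axon 4000B scanner. Polyhistidine- and DsRed-tagged transcription factors (N-terminal fusions) from E. coli BL21-CodonPlus were purified on Ni–NTA and applied at 200 nM for 1 h at 25 °C to a double-stranded, BSA-blocked custom Agilent array in buffer with 50 µM zinc acetate.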

Row | Sequence | binding signal
1 | TTGTTAATGCTAATTTTATCAACATGTGCTTTTCTTTTTACGGAGTCACCTAGTGCAG | 9500 fluorescence intensity (a.u.)
2 | CTTCTCACTCTTCTCGCGTCCTTGCAGGCTTTTTCCTCCACGGAGTCACCTAGTGCAG | 9530 fluorescence intensity (a.u.)
3 | TTGTCAATTGGCACTCTGAAAGTGCCTGCGTGGTGGTTCTCGGAGTCACCTAGTGCAG | 9390 fluorescence intensity (a.u.)
4 | TCTCGTTATTGGTGTGTTACGAGTAACCTGTGTGTTGTTACGGAGTCACCTAGTGCAG | 10900 fluorescence intensity (a.u.)
5 | GCCCACTCCTCCTTCTCGCCGCTGGCGACTCTGTTGGGCCCGGAGTCACCTAGTGCAG | 8820 fluorescence intensity (a.u.)
6 | ACTTGTCACCACGGGGCGGCACACTACACTCCACGCGAGCCGGAGTCACCTAGTGCAG | 8210 fluorescence intensity (a.u.)
7 | TTTGCAATCATTTCCTGTACCTTGTCCAGATTCTAGCTCTCGGAGTCACCTAGTGCAG | 9710 fluorescence intensity (a.u.)
8 | TAGCCTACATGTCTCTTTTATTTCTCTTTGTTCGGTTATTCGGAGTCACCTAGTGCAG | 12900 fluorescence intensity (a.u.)
9 | ACACAGCCTTACTGTAGTTTTCAGCTTCTGAATGTGCTTCCGGAGTCACCTAGTGCAG | 8050 fluorescence intensity (a.u.)
10 | TCCCATCTCTCGAATCGACGGCTTCCGCGTCTTCGCGAAGCGGAGTCACCTAGTGCAG | 9330 fluorescence intensity (a.u.)
11 | CTGCATATCCGCTTGCTTCCACAGTTCCACTTGCATCTTGCGGAGTCACCTAGTGCAG | 9190 fluorescence intensity (a.u.)
12 | TTTGGTTTGGTTAGTTTCAAGGTCTCGGCCCCATGACTAGCGGAGTCACCTAGTGCAG | 9790 fluorescence intensity (a.u.)
13 | GGTATTTAAACAACCATACTAACGGACCCATCGTTTCGCTCGGAGTCACCTAGTGCAG | 8530 fluorescence intensity (a.u.)
14 | GCTCGGCGGCGCCGCGGCGGCGGTGGCGGAGGCGGGGATGCGGAGTCACCTAGTGCAG | 8910 fluorescence intensity (a.u.)
15 | AACTCCTGGAACGGTTTTTGTACCCTTGTGCCGGCCGAGACGGAGTCACCTAGTGCAG | 9810 fluorescence intensity (a.u.)
16 | AATTACTATAACACATCTTCCTAACAAATGCACCTCAATACGGAGTCACCTAGTGCAG | 8050 fluorescence intensity (a.u.)
17 | CAATTGATCCCTGTATTGGTCCGCTTAGGTTGTTCAATGACGGAGTCACCTAGTGCAG | 9690 fluorescence intensity (a.u.)
18 | GAAGATGCATTCTTGATTCCGTGTGTTTCTCCTTGCTTATCGGAGTCACCTAGTGCAG | 11900 fluorescence intensity (a.u.)
19 | TTTCTTTCTTTCTTTCTTGGGATCTTTTCCTTCTTTTTTTCGGAGTCACCTAGTGCAG | 12600 fluorescence intensity (a.u.)
20 | TCTACCTTGGTTTTTCATCCATAATAAGTTTAGTATTTCTCGGAGTCACCTAGTGCAG | 9480 fluorescence intensity (a.u.)
21 | GTAGACCAGCGAGCAAAGACCCACTCCACCACACTTCCATCGGAGTCACCTAGTGCAG | 10300 fluorescence intensity (a.u.)
22 | GTGGTTGAATGTGCAGAGGTTTTATTCGCGTGTCACGCTTCGGAGTCACCTAGTGCAG | 12000 fluorescence intensity (a.u.)
23 | CTTCTCCTTTGGCTTTGTGTTGCATTTTCAGTACCAAGAACGGAGTCACCTAGTGCAG | 8430 fluorescence intensity (a.u.)
24 | ATTGGAGTGTTTCGATTTGTCCATCGTGTGTAATATTCAGCGGAGTCACCTAGTGCAG | 9310 fluorescence intensity (a.u.)
25 | CCCGGTTTTCCTTATTAACTAGGCCAACTCTCTTCTTCCACGGAGTCACCTAGTGCAG | 8820 fluorescence intensity (a.u.)
26 | TCTCTACTCTCGGTCTTCTCTCATCGCTCGCCTGTATGTCCGGAGTCACCTAGTGCAG | 11000 fluorescence intensity (a.u.)
27 | GCCCCACTTTAAACATCTACTTGAATGCTTAGACCACTTTCGGAGTCACCTAGTGCAG | 9960 fluorescence intensity (a.u.)

Random excerpt: 3 records from the list
Row | Sequence | binding signal
3 | TTGTCAATTGGCACTCTGAAAGTGCCTGCGTGGTGGTTCTCGGAGTCACCTAGTGCAG | 9390 fluorescence intensity (a.u.)
4 | TCTCGTTATTGGTGTGTTACGAGTAACCTGTGTGTTGTTACGGAGTCACCTAGTGCAG | 10900 fluorescence intensity (a.u.)
21 | GTAGACCAGCGAGCAAAGACCCACTCCACCACACTTCCATCGGAGTCACCTAGTGCAG | 10300 fluorescence intensity (a.u.)

(further entries)

Row | Sequence | binding signal
28 | GCAGATGCCATATACTAATTGTACTACATCTCAATCCTCACGGAGTCACCTAGTGCAG | 8570 fluorescence intensity (a.u.)
29 | AAATAATCTTACTTGGATTGTCTCTGTGTTGCTAGGATAACGGAGTCACCTAGTGCAG | 15700 fluorescence intensity (a.u.)
30 | CCTCCTTGGTCACAGCGGCCGCCCACTTCTGCCCAAATCGCGGAGTCACCTAGTGCAG | 8670 fluorescence intensity (a.u.)
31 | AACATCTCCAAGGAGGAAACGGCACCCACAGGCGTCGATGCGGAGTCACCTAGTGCAG | 8140 fluorescence intensity (a.u.)
32 | GTTATATGCCATTAACATCTTGCGTACATATAAGTTTCATCGGAGTCACCTAGTGCAG | 8810 fluorescence intensity (a.u.)
33 | GAAGAAGAGGGTTGTTTTTTTTTTCCTATTTTTCCCTTTACGGAGTCACCTAGTGCAG | 11900 fluorescence intensity (a.u.)
34 | TTATATAAGTACACGCTCCTTCGCTCGCTGCGTGCACTGCCGGAGTCACCTAGTGCAG | 8380 fluorescence intensity (a.u.)
35 | TGCGGCTTTGATTTGCGGGGTTCACACACGAGTAATTGCACGGAGTCACCTAGTGCAG | 10900 fluorescence intensity (a.u.)
36 | CCATAATCCTTATTTTTCATAGTTGCCTCCAATTTCACTCCGGAGTCACCTAGTGCAG | 8390 fluorescence intensity (a.u.)
37 | TCTTCTTCGCAGGACACTGGTCCATTTCCTCCAGTTTCATCGGAGTCACCTAGTGCAG | 8320 fluorescence intensity (a.u.)
38 | TGCTCCTGATCATATCGCTGCCTCTGCACCGGCCTAGCCACGGAGTCACCTAGTGCAG | 8320 fluorescence intensity (a.u.)
39 | CATATCTACCTTCGACATTTTTCACTCTCGCACTCTCCATCGGAGTCACCTAGTGCAG | 8870 fluorescence intensity (a.u.)
40 | TTTTAGTACGTGTTTGTCCATTCGTCTTATTCAAAAAATTCGGAGTCACCTAGTGCAG | 8220 fluorescence intensity (a.u.)
41 | ACACGCTAGCTAGTCCCTGTTCCTTTTACGTTCTTGTATTCGGAGTCACCTAGTGCAG | 8100 fluorescence intensity (a.u.)
42 | TTCTCATGAAATGTATTGGGCAATATCTGTCCCTTGCAACCGGAGTCACCTAGTGCAG | 8340 fluorescence intensity (a.u.)
43 | TTCCTCTCCGCTCACGTGCTTCGCGCCTTCGTCGACGCTCCGGAGTCACCTAGTGCAG | 9720 fluorescence intensity (a.u.)
44 | GCACAGTAACCCTTATATTCTAATCCTAACTACACTTATCCGGAGTCACCTAGTGCAG | 8510 fluorescence intensity (a.u.)
45 | TTACACGCAATCTGTATAATTAGTTTTGTTCTTTGTCTATCGGAGTCACCTAGTGCAG | 9110 fluorescence intensity (a.u.)
46 | ACGGTGAAAACATTGTGTGGGTGTGGCATCTTATTTCTCCCGGAGTCACCTAGTGCAG | 8380 fluorescence intensity (a.u.)
47 | CCCTTTCATACTTCCTATCTATCCATCTACCGAAATACAACGGAGTCACCTAGTGCAG | 8290 fluorescence intensity (a.u.)
48 | CGATATTGTTTTCATTTCCGATTTTACCGTTTTCGATTTTCGGAGTCACCTAGTGCAG | 11700 fluorescence intensity (a.u.)
49 | GCTCCACCTGCACACGTGTCCCCACCCCATTGGCTCCCTCCGGAGTCACCTAGTGCAG | 9200 fluorescence intensity (a.u.)
50 | AATACTAGCCATTCATCCATTTCGCTTTTCCAATCCCACCCGGAGTCACCTAGTGCAG | 8520 fluorescence intensity (a.u.)
51 | GGATGGGATGGACGCGCGCGCGAGCAACACGGCGAAGTTTCGGAGTCACCTAGTGCAG | 8050 fluorescence intensity (a.u.)
52 | AGTTTTTGTGGTGTTTGGTTGGAGGGCAAGGTGGATGGGGCGGAGTCACCTAGTGCAG | 13100 fluorescence intensity (a.u.)
53 | GTGGCGGCGGAGGAGGTGGGATGGGGATTTGATGATGGCCCGGAGTCACCTAGTGCAG | 8320 fluorescence intensity (a.u.)
54 | CCGCATCATCCACCTCCTTGCCCTTATCCGATAGCCATTACGGAGTCACCTAGTGCAG | 9440 fluorescence intensity (a.u.)
